# Data from PubChem BioAssay AID493014 (National Center for Advancing Translational Sciences (NCATS), 2011).
# Among all 340,000 compounds or so, about 170 (0.05%) were called active. This list was built around the results that the source calls inconclusive (neither active nor inactive); the mix of calls is not that of the screen. Calls follow the shape of the dose curve; as a rule, active = well fitted inhibition curve with a large enough effect in the signal ratio, with a control signal flat (not every such curve was filed as active); inconclusive = small, poorly fitted or top-dose-only effect, or effect the other way, or a change in a side signal; inactive = flat fitted curve, though single readings scatter; the % refers to the signal ratio. A potency beside an inconclusive call is a rough fit, not a confirmed value.
# Experiment: qHTS Assay to Find Inhibitors of Chronic Active B-Cell Receptor Signaling;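 as to activity change, negative = inhibition: plate controls were basal doxycycline-induced cells for no effect and cells given 10 µM MG132 for full effect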
# Details: ABC-DLBCL IkBa-CBG/CBR reporter, luminescence ratio (green luciferase fused to IkBa over red control in TMD8 lymphoma cells), 4 h; activity change, negative = inhibition: at 46.1 µM (top of the series) unless noted
# Outline: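 TMD8 ABC-DLBCL cells carrying doxycycline-inducible green luciferase fused to IkappaBalpha plus unfused red luciferase were exposed to compounds (up to 46 uM) for 4 hrs at 37C. Activity came from the overlap-corrected green/red luminescence ratio.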
# Potency is read from the fitted curve at half-maximal effect.
Compound,"activity change, negative = inhibition",Potency
CC(C)N(C(=O)[C@H]1C[C@H](CC(=O)NCCc2ccccn2)C(=O)N2CCc3c([nH]c4cc(CCC(=O)N(C)C)ccc34)[C@]12C)C(C)C,inconclusive: -3.19%,
O=C(Nc1cccc(Cl)c1)C1CCCN(S(=O)(=O)c2ccc(F)cc2)C1 (centres undefined),inconclusive: 16.9%,
NC(=S)N/N=C/c1coc2c(ccc3ccccc32)c1=O,,"inconclusive: 0.00461 µM [rising, full curve, poor fit]"
O=C(NCc1cccnc1)NC(=O)c1ccc(Cl)cc1,inconclusive: 7.28%,
Cc1ccn2c(=O)nc(SCC(=O)NCCc3ccccc3)nc2c1,inconclusive: 18.7%,
O=C(N=C1SC2CS(=O)(=O)CC2N1c1ccc(F)c(Cl)c1)C1CC1 (centres undefined),inconclusive: -0.4%,
O=C(C#Cc1ccccc1)Nc1cccc(F)c1,,"inconclusive: 35.5 µM [rising, single point]"
O=C(COC(=O)c1ccc2c(c1)OCO2)Nc1cccc(F)c1,inconclusive: -0.956%,
CCCCN(CCO)c1ncnc2sc(-c3ccccc3)cc12,inactive: -1.94%,
Cc1ccc(S(=O)(=O)N2CCN(CCc3ccncc3)CC2)cc1,inconclusive: 9.8%,
CCn1c(SCc2ccc(C)cc2)nnc1-c1cnccn1,inactive: 0.69%,
CC(=O)c1cc(F)ccc1OCC(=O)N1CCCc2ccccc21,inconclusive: -21.9%,
COCCNC(=O)COc1ccccc1C,inconclusive: -2.18%,
CCOc1ccc(NC(=O)CSc2nnnn2C2CCCC2)cc1,inactive: -0.148%,
O=C1/C(=C\c2ccc(O)c(O)c2)N=C2CCCCCN12,,"inconclusive: 20 µM [falling, single point]"
COc1ccc(C(CNC(=O)c2cccc(S(=O)(=O)N(C)c3ccccc3)c2)N2CCCC2)cc1 (centres undefined),inactive: 0.13%,
CN(C)c1ccc(NS(=O)(=O)c2ccc(Cl)cc2)cc1,inactive: 6.21%,
COc1cccc(Nc2nc(-c3sc(NC(=O)c4ccccc4)nc3C)cs2)c1,,"inconclusive: 11.2 µM [falling, partial curve]"
Cc1nn(-c2ccccc2)c2nc(-c3cccs3)cc(C(=O)NN)c12,inactive: 6.01%,
Cc1cccc2c1Sc1ccccc1CC2=O,,"inconclusive: 5.01 µM [falling, single point]"
c1ccc(CCc2nc(-c3ccncc3)no2)cc1,inconclusive: 4.14%,
O=C(O)C1CCC(Cn2c(SCc3cc(=O)n4cc(Cl)ccc4n3)nc3ccsc3c2=O)CC1 (centres undefined),inactive: 15.1%,
Cc1c(C=O)c2cc(OCc3ccccc3)ccc2n1C,,"inconclusive: 22.4 µM [falling, single point]"
O=C(c1cccnc1)c1ncc(C(F)(F)F)cc1Cl,inconclusive: 5.81%,
COc1cc2ncnc(NCc3ccccc3F)c2cc1OC,inconclusive: 1.13%,
COc1ccc(N2C(=O)C3CCCN3C2c2cccc(C)c2)cc1 (centres undefined),inconclusive: -0.0035%,
O=C(N/N=C/c1ccc(O)c(Br)c1)c1cc2c(ccc3ccccc32)o1,inconclusive: -11.4%,

Compound,"activity change, negative = inhibition",Potency
CC1N(O)C(c2ccc(Cl)cc2Cl)N(O)C1(C)C (centres undefined),inconclusive: 0.362%,
O=C(CC(Nc1ccccc1Cl)C(=O)OCC(=O)c1cccs1)c1ccccc1 (centres undefined),inconclusive: 3.02%,
CCc1nc(NC(=O)c2sc(C)nc2C)sc1C(=O)OC,inconclusive: -23.6%,
Oc1ccccc1/C=N/Nc1nccnc1Cl,,"inconclusive: 18.4 µM [falling, single point]"
O=C(C1=C[C@@H](c2ccc(Br)cc2)C[C@@H](OCc2ccc(CO)cc2)O1)N1CCN(Cc2ccc3c(c2)OCO3)CC1,inconclusive: 0.0809%,
OCCN(CCO)c1nc(-c2ccccc2)nc2c1oc1ccccc12,inconclusive: 16.6%,
CCn1c(C(=O)N2CCCC(C(=O)O)C2)cc2sccc21 (centres undefined),inconclusive: 6.21%,
O=C(Cc1ccccc1F)Nc1nc(-c2ccc(F)cc2)cs1,,"inconclusive: 15.8 µM [falling, single point]"
COc1ccc(C(=O)N/N=C/c2ccccc2C(=O)O)cc1OC,,"inconclusive: 7.08 µM [falling, partial curve, poor fit]"
CC1CCN(CCCCOc2ccccc2Br)CC1,inactive: -3.23%,
Cc1cnc(NC(=O)C2CCCC2)s1,inconclusive: 21%,
CC(C(N)=O)N1C(=O)C2C3C=CC(C3)C2C1=O (centres undefined),inconclusive: 6.2%,
COc1ccc(CO[C@@H]2O[C@H](CO)[C@@H](O)[C@H](O)[C@H]2NC(C)=O)cc1OC,inconclusive: 4.08%,
COc1ccc(N2CCN(C(=O)CN(CCc3ccccc3)S(C)(=O)=O)CC2)cc1,,"inconclusive: 4.61 µM [falling, partial curve, poor fit]"
CCCC(=O)Nc1ccc(NC(=O)c2ccccc2)nc1,,"inconclusive: 35.5 µM [rising, single point]"
CCOC(=O)c1c(-c2ccccc2)csc1N1C(=O)Nc2ccccc2N1O,inconclusive: 21.9%,
CC1CCN(C(=S)Nc2ccc(F)cc2)CC1,inactive: 3.76%,
COc1ccc(-c2csc(C)n2)cc1,inactive: -17.6%,
Cc1nnc(SCC(=O)Nc2ccc(Cl)cn2)[nH]c1=O,,"inconclusive: 0.82 µM [falling, full curve, poor fit]"
Cc1ccc(CNC(=O)c2cc(-c3ccc(C)c(C)c3)nc3ccccc23)cc1,inconclusive: -0.456%,
COc1ccc(-n2nc(C(=O)NCC(=O)NCc3ccc(F)cc3)c3ccccc3c2=O)cc1,inactive: 4.32%,
CCNc1nc(NCC)nc(N/N=C/c2ccc(OC)cc2)n1,inactive: 15.2%,
COc1cc2c(cc1OC)-c1cc(Nc3cccc(F)c3)nc(=O)n1CC2,inconclusive: -8.34%,
Cn1c(SCC(=O)NNC(=O)Nc2ccccc2)nnc1-c1ccccc1,inconclusive: -0.0768%,
O=S(Cc1ccccc1)CC(O)(c1ccc(Cl)cc1)c1ccc(Cl)cc1 (centres undefined),inconclusive: 11.7%,
COc1ccc(CCNC(=O)c2c[nH]c3ccccc3c2=O)cc1OC,,"inconclusive: 35.5 µM [falling, partial curve, poor fit]"
O=C(/C=C/c1cccs1)N1CCN(c2ccc(O)cc2)CC1,,"inconclusive: 2 µM [falling, full curve, poor fit]"

# 2 records drawn at random from those above, as already listed:
Compound,"activity change, negative = inhibition",Potency
CC(C(N)=O)N1C(=O)C2C3C=CC(C3)C2C1=O (centres undefined),inconclusive: 6.2%,
CC1N(O)C(c2ccc(Cl)cc2Cl)N(O)C1(C)C (centres undefined),inconclusive: 0.362%,
